Source: PubChem BioAssay AID330 (DTP/NCI, 2004)
The list is a part of this screen's results and no random one: it gathers tests that were run many times, whatever their T/C, doses with no T/C, and many T/C values between a quarter and a half above the control. Other doses and runs of a compound stand elsewhere. T/C is the treated group as % of the vehicle group. Some doses have a count of surviving animals in place of a T/C: the source files T/C as zero there, which appears to mark a toxic dose or a test without result, not a measured value. Some survivor counts are full or nearly so, which does not show that the dose was tolerated: the source hardly ever lists a survival T/C far under the control, and the zero likely stands for such cases as well. Survivors were counted at the toxicity check, usually on the fifth day, unless a day is given; later deaths do not show. Schedule codes are those of the source, taken here to give the interval after Q, in days (D) or hours (H), and the number of doses after X. Where survival is the endpoint, this PubChem deposit counts one and a half times the control or more as active, and values a quarter to a half above the control carry no call in these data; other NCI protocols may use other cut-offs. Some doses were run more than once; their values stand side by side, smallest first. Some T/C values carry the count of animals alive at the toxicity check (mostly the fifth day); without a count, all were alive then.

Tested on: P388 leukemia ip, CD2F1 mice, survival T/C
Test: NCI In Vivo Anticancer Drug Screen. Data for tumor model P388 Leukemia (intraperitoneal) in CD2F1 (CDF1) mice
Settings: T/C endpoint: median survival time, higher T/C = longer survival
[1] = dose: 200.0 mg/kg/injection, schedule: Q01DX005 (ip), vehicle: Klucel (hydroxypropylcellulose) (HPC)
[2] = dose: 100.0 mg/kg/injection, schedule: Q01DX009 (ip), vehicle: saline
[3] = dose: 200.0 mg/kg/injection, schedule: Q01DX009 (ip), vehicle: saline
[4] = dose: 200.0 mg/kg/injection, schedule: Q01DX005 (ip), vehicle: saline with Tween-80
[5] = dose: 25.0 mg/kg/injection, schedule: Q01DX009 (ip), vehicle: saline
[6] = dose: 1.0 mg/kg/injection, schedule: Q01DX009 (ip), vehicle: saline + alcohol

COc1cc(C)c2nc3c(C)c(Cl)ccc3c(Cl)c2c1
survivor count (dose: 12.5 mg/kg/injection, schedule: Q01DX005 (ip), vehicle: Klucel + Tween-80): 6 of 6 | survivor count (dose: 25.0 mg/kg/injection, schedule: Q01DX005 (ip), vehicle: Klucel + Tween-80): 6 of 6 | survivor count (dose: 50.0 mg/kg/injection, schedule: Q01DX005 (ip), vehicle: Klucel + Tween-80): 6 of 6 | survivor count (dose: 100.0 mg/kg/injection, schedule: Q01DX005 (ip), vehicle: Klucel + Tween-80): 6 of 6 | survivor count (dose: 200.0 mg/kg/injection, schedule: Q01DX005 (ip), vehicle: Klucel + Tween-80): 6 of 6

CC1=NN(c2ccccc2)C/C1=N\O
survivor count [1]: 0 of 6

CC1(C)O[Se](=O)OC1(C)C
survivor count (dose: 100.0 mg/kg/injection, schedule: Q04DX003 (ip), vehicle: saline): 0 of 6 | survivor count (dose: 200.0 mg/kg/injection, schedule: Q04DX003 (ip), vehicle: saline): 0 of 6 | survivor count (dose: 400.0 mg/kg/injection, schedule: Q04DX003 (ip), vehicle: saline): 0 of 6

Cc1nc(=S)c2ncn(-c3ccccc3)c2[nH]1
survivor count (dose: 240.0 mg/kg/injection, schedule: Q01DX005 (ip), vehicle: Klucel (hydroxypropylcellulose) (HPC)): 6 of 6

C(=C\c1ccco1)/c1ccnnc1
survivor count [2]: 2 of 6 | survivor count [3]: 0 of 6

CC(=O)ON(C(=O)c1ccc([N+](=O)[O-])cc1)c1ccc(C=O)cc1
survivor count (dose: 400.0 mg/kg/injection, schedule: Q01DX001 (ip), vehicle: saline with Tween-80): 3 of 6

C/C=C1\C(=O)OC23C=CC4C(C(=O)OC)C(O)OC(OC12)C43 (configuration not stated)
survivor count (dose: 0.25 mg/kg/injection, schedule: Q01DX009 (ip), vehicle: saline with Tween-80): 6 of 6 | survivor count (dose: 0.5 mg/kg/injection, schedule: Q01DX009 (ip), vehicle: saline with Tween-80): 6 of 6

NC(=S)Oc1ccccc1
survivor count (dose: 50.0 mg/kg/injection, schedule: Q01DX009 (ip), vehicle: saline with Tween-80): 6 of 6

CCCCCCCCCCn1cc[nH]c1=S
survivor count [1]: 3 of 6

O=C1NC(=O)C2CC3C(CC12)C1C(=O)NC(=O)C31 (configuration not stated)
survivor count [4]: 1 of 6

CC1=C2CC/C(C)=C/CCC3(C)OC3CC/C(C)=C/C2OC1=O (configuration not stated)
survivor count (dose: 8.0 mg/kg/injection, schedule: Q01DX009 (ip), vehicle: Klucel (hydroxypropylcellulose) (HPC)): 6 of 6

O=[N+]([O-])c1ccc(/C=C/[P+](c2ccccc2)(c2ccccc2)c2ccccc2)o1
survivor count (dose: 6.25 mg/kg/injection, schedule: Q01DX009 (ip), vehicle: saline): 3 of 6 | survivor count (dose: 12.5 mg/kg/injection, schedule: Q01DX009 (ip), vehicle: saline): 5 of 6 | survivor count [5]: 0 of 6 | survivor count (dose: 50.0 mg/kg/injection, schedule: Q01DX009 (ip), vehicle: suspension in saline): 1 of 6 | survivor count (dose: 100.0 mg/kg/injection, schedule: Q01DX009 (ip), vehicle: suspension in saline): 0 of 6 | survivor count (dose: 200.0 mg/kg/injection, schedule: Q01DX009 (ip), vehicle: suspension in saline): 0 of 6

BrCC[P+](c1ccccc1)(c1ccccc1)c1ccccc1
T/C (dose: 1.3 mg/kg/injection, schedule: Q01DX009 (ip), vehicle: water): 127 % of control | T/C (dose: 2.0 mg/kg/injection, schedule: Q01DX009 (ip), vehicle: water): 125 % of control | T/C (dose: 3.13 mg/kg/injection, schedule: Q01DX009 (ip), vehicle: water): 127 % of control | survivor count (dose: 4.5 mg/kg/injection, schedule: Q01DX009 (ip), vehicle: water): 6 of 6 | survivor count (dose: 6.8 mg/kg/injection, schedule: Q01DX009 (ip), vehicle: water): 4 of 6 | survivor count (dose: 12.5 mg/kg/injection, schedule: Q01DX009 (ip), vehicle: water): 0 of 6 | survivor count (dose: 25.0 mg/kg/injection, schedule: Q01DX009 (ip), vehicle: water): 0 of 6

COc1c2ccccc2c(OC)c2c(OC(C)=O)c3c(c(OC(C)=O)c12)CC=CC3
survivor count (dose: 12.5 mg/kg/injection, schedule: Q01DX009 (ip), vehicle: other): 3 of 3

CN1CCC/C1=C1/Cc2ccccc2C1=O
T/C [1]: 125 % of control

C[Si](C)(CNCCN)c1ccccc1
survivor count (dose: 240.0 mg/kg/injection, schedule: Q01DX005 (ip), vehicle: saline): 0 of 6

O=C(Nc1ccc(C2=NCCN2)cc1)c1cc2ccc(C3=NCCN3)cc2o1
survivor count (dose: 400.0 mg/kg/injection, schedule: Q04DX003 (ip), vehicle: suspension in saline): 3 of 6

Cc1c2ccncc2c(C)c2c1[nH]c1ccc(O)cc12
T/C (dose: 1.56 mg/kg/injection, schedule: Q01DX009 (ip), vehicle: suspension in saline): 138 % of control [4 of 6 alive] | T/C (dose: 3.12 mg/kg/injection, schedule: Q01DX009 (ip), vehicle: saline): 138 % of control [4 of 6 alive] | T/C (dose: 3.12 mg/kg/injection, schedule: Q01DX009 (ip), vehicle: suspension in saline): 148 % of control | survivor count [5]: 6 of 6

CCOC(=O)c1c[nH]c(=S)n(CCOC)c1=O
survivor count (dose: 200.0 mg/kg/injection, schedule: Q01DX009 (ip), vehicle: saline with Tween-80): 6 of 6

Cl/N=C1C=C/C(=N\Cl)C=C/1Cl
survivor count (dose: 50.0 mg/kg/injection, schedule: Q01DX005 (ip), vehicle: saline with Tween-80): 5 of 5 | survivor count (dose: 100.0 mg/kg/injection, schedule: Q01DX005 (ip), vehicle: saline with Tween-80): 0 of 5 | survivor count [4]: 0 of 5

COc1ccc(-c2cc(=O)c3c(O)cc(O)cc3o2)cc1
survivor count (dose: 400.0 mg/kg/injection, schedule: Q04DX003 (ip), vehicle: saline with Tween-80): 6 of 6

COC(=O)[C@@]12OC[C@]34[C@H]([C@@H](O)[C@@H]1O)[C@@]1(C)CC(=O)C(O)=C(C)[C@@H]1C[C@H]3OC(=O)[C@H](OC(=O)/C=C(\C)C1(C)CO1)[C@@H]24 (some centres not stated)
survivor count (dose: 0.25 mg/kg/injection, schedule: Q01DX009 (ip), vehicle: saline + alcohol): 3 of 6 | survivor count (dose: 0.5 mg/kg/injection, schedule: Q01DX009 (ip), vehicle: saline + alcohol): 0 of 6 | T/C [6]: 126 % of control | survivor count [6]: 6 of 6 | survivor count (dose: 2.0 mg/kg/injection, schedule: Q01DX009 (ip), vehicle: saline + alcohol): 2 of 6 | survivor count (dose: 4.0 mg/kg/injection, schedule: Q01DX009 (ip), vehicle: saline + alcohol): 0 of 6

O=C(CBr)N1c2ccccc2Sc2c1ccc1ccccc21
survivor count (dose: 400.0 mg/kg/injection, schedule: Q04DX003 (ip), vehicle: Klucel (hydroxypropylcellulose) (HPC)): 0 of 6

C[C@@]1(CO)[C@H](O)CC[C@@]2(C)[C@H]1CC[C@H]1C[C@@H]3C[C@@]12CC[C@@]3(O)COC(=O)CN
T/C (dose: 20.0 mg/kg/injection, schedule: Q03HX027 (ip), vehicle: saline + alcohol): 130 % of control | T/C (dose: 50.0 mg/kg/injection, schedule: Q01DX009 (ip), vehicle: saline): 131 % of control | T/C (dose: 60.0 mg/kg/injection, schedule: Q01DX009 (ip), vehicle: saline + alcohol): 127 % of control | survivor count (dose: 80.0 mg/kg/injection, schedule: Q03HX027 (ip), vehicle: saline + alcohol): 2 of 6 | T/C [2]: 140 % of control | T/C [3]: 134 and 135 % of control | survivor count (dose: 240.0 mg/kg/injection, schedule: Q01DX009 (ip), vehicle: saline + alcohol): 0 of 6

CCOCC(=O)N[C@H]1CCc2cc(OC)c(OC)c(OC)c2-c2ccc(SC)c(=O)cc21
T/C (dose: 0.38 mg/kg/injection, schedule: Q01DX009 (ip), vehicle: Klucel (hydroxypropylcellulose) (HPC)): 130 [5 of 6 alive] and 132 % of control [5 of 6 alive] | survivor count (dose: 3.0 mg/kg/injection, schedule: Q01DX009 (ip), vehicle: Klucel (hydroxypropylcellulose) (HPC)): 5 of 6 | survivor count (dose: 6.0 mg/kg/injection, schedule: Q01DX009 (ip), vehicle: Klucel (hydroxypropylcellulose) (HPC)): 4 of 6
